Measurements reported in patent US7205433B2, “Crystal of amino acid ester salt and process for producing the same” (Ajinomoto Co., Inc., priority 2002, dated 2007).

Legend:
[1] = Experimental Example 6: corrosiveness evaluation; details: SUS 316 L; for corrosion state of the stainless plate: 22 EC, 30% RH; for corrosion state of the stainless plate and state of the salt: 8 days later (24° C., 65% RH; 6 hours)
[2] = Experimental Example 3: comparison of corrosiveness to stainless; details: SUS 316 L; for corrosion state of the stainless plate: 22° C.; for corrosion state of the stainless plate and state of the salt: Day 8 (after standing at 24° C., 65% RH; 9 hours)
[3] = Corrosiveness evaluation, summary

Compound	corrosion state of the stainless plate ([1]; 1 day later)	corrosion state of the stainless plate ([1]; 6 days later)	corrosion state of the stainless plate ([1]; 7 days later)	corrosion state of the stainless plate and state of the salt [1]	further results
CCOC(=O)[C@H](C)N.O=S(=O)(O)c1ccc(Cl)cc1 [L-Ala-OEt 4-CBS salt, L-alanine ethyl ester 4-chlorobenzenesulfonate]	No change	No change	No change	partly liquefied, though without rust	
CCOC(=O)[C@H](C)N.O=S(=O)(O)c1ccccc1 [L-Ala-OEt BsOH salt, L-alanine ethyl ester benzenesulfonate]	No change	No change	No change		corrosion state of the stainless plate and state of the salt ([1]; benzenesulfonate): partly liquefied, though without rust
CCOC(=O)[C@H](C)N.Cl [L-Ala-OEt HCl salt, alanine ethyl ester hydrochloride]					corrosion state of the stainless plate ([2]; 30% RH, Day 1, hydrochloride): caused a brown rust on the stainless plate; corrosion state of the stainless plate ([2]; 30% RH, Day 7, hydrochloride): the rust increased; corrosion state of the stainless plate and state of the salt ([2]; hydrochloride): became a brown liquid with the color of the rust; corrosion state of the stainless plate ([1]; 1 day later, hydrochloride): developed a brown rust on the stainless plate; corrosion state of the stainless plate ([1]; 6 days later, hydrochloride): developed more rust; corrosiveness against stainless [3]: showed corrosiveness against stainless
CCOC(=O)[C@H](C)N.CS(=O)(=O)O [L-Ala-OEt MsOH salt, L-alanine ethyl ester methanesulfonate]	No change	No change	No change		corrosion state of the stainless plate ([2]; 30% RH, Day 1): No change; corrosion state of the stainless plate ([2]; 30% RH, Day 7): No change; corrosion state of the stainless plate and change of the salt over the whole period ([2]; 7 days at 22° C., 30% RH, then 9 hours at 24° C., 65% RH): showed no change during this period, and no rust was found on the stainless plate
COC(=O)[C@H](C)N.Cl [L-Ala-OMe HCl salt, alanine methyl ester hydrochloride, reference compound]	No change				corrosion state of the stainless plate ([2]; 30% RH, Day 1, hydrochloride): caused a brown rust on the stainless plate; corrosion state of the stainless plate ([2]; 30% RH, Day 7, hydrochloride): the rust increased; corrosion state of the stainless plate and state of the salt ([2]; hydrochloride): became a colorless liquid; corrosion state of the stainless plate ([1]; 6 days later, hydrochloride): developed a rust; corrosiveness against stainless [3]: showed corrosiveness against stainless
L-alanine ethyl ester 2,4-dimethylbenzenesulfonate [L-Ala-OEt 2,4-DMBS salt]	No change	No change	No change	No change	
L-alanine ethyl ester 2,5-dimethylbenzenesulfonate [L-Ala-OEt 2,5-DMBS salt]	No change	No change	No change	No change	
L-alanine ethyl ester 4-ethylbenzenesulfonate [L-Ala-OEt 4-EBS salt]	No change	No change	No change	No change	
